Results reported in US20220125839A1, “COMBINATION OF T-CELL THERAPY AND TARGETED THERAPY FOR TREATING THERAPY-RESISTANT MELANOMA WITH MUTATIONS IN THE BRAF GENE” (H. LEE MOFFITT CANCER CENTER AND RESEARCH INSTITUTE, INC., priority 2019, published 2022).
At least one structure is not confirmed: it was looked up by name or label, or the drawing left a doubt.

What was measured:
WM35 cells = test: MTT assay, cell viability of WM35 cells; type: cell-based, human; conditions: 4-day in vitro treatment of melanoma cells
M6PR [1] = test: Cell surface M6PR expression by flow cytometry in WM35 melanoma cells; type: cell-based, human; conditions: sensitive WM35 cells; trametinib alone; 24 hours
Protocol: Human studies were approved by The Wistar Institute IRB. Peripheral blood was collected from healthy volunteers after obtaining informed consent. Animal experiments were approved by The Wistar Institute Animal Care and Use Committee. The mice were kept under pathogen free conditions. Experiments were carried out using female NSG mice or female and male nonobese diabetic/severe combined immunodeficient (NOD/SCID) mice, obtained from the mouse facility of the Wistar Institute and Charles River Laboratories, respectively. WM35 human melanoma and HLA-matched human tumor infiltrating lymphocytes (TIL) were generated at H. Lee Moffitt Cancer Center and Research Institute, Tampa, Fla., USA). […] Louis, Mo.) and 1% Pen/Strep (Corning; Cat. no. 30-002-Cl) at 37° C., 5% CO2. PLX4720-resistant cells were kept in cell culture media supplemented with 1 μM PLX4720 to keep these cells resistant against the drug. 350 μg/mL Hygromycin B (Invitrogen; […] Tumor cell lines were tested for mycoplasma contamination by using Universal Mycoplasma detection kit (ATCC) regularly. […] Cat. no. […] Cat. no. S2673). Hypoxia (0.5% 02) was maintained using hypoxic chamber (BioSpherix). […] Cells were incubated with Aqua dead cell staining kit (Thermo Fischer Scientific; Cat. no. […] Cat. no. 565105; clone no. MEM-238) or its isotype (BD Biosciences; Cat. no. 557732; clone no. […] Data was analyzed by FlowJo software (Tree Star).

M6PR [2] = test: Cell surface M6PR expression by flow cytometry in PLX4720-resistant WM35-BR cells; type: cell-based, human; conditions: trametinib alone, 24 hours
M6PR [3] = test: Immunohistochemistry of pre- and on-treatment patient tumor biopsies

SMILES | cell viability (WM35 cells) | M6PR expression (M6PR [1]) | expression of M6PR (M6PR [2]) | CD4 or CD8 lymphocytes within or surrounding the tumor (M6PR [3]; after initiation of vemurafenib treatment) | M6PR tumor scores, on-treatment vs pre-treatment biopsies (M6PR [3]; nine patients, biopsies 10-321 days after initiation of vemurafenib, p=0.003)
CC(=O)Nc1cccc(-n2c(=O)n(C3CC3)c(=O)c3c(Nc4ccc(I)cc4F)n(C)c(=O)c(C)c32)c1 [trametinib] | decrease in cell viability | did not induce M6PR expression | significantly up-regulated expression of M6PR |  | 
CCCS(=O)(=O)Nc1ccc(F)c(C(=O)c2c[nH]c3ncc(-c4ccc(Cl)cc4)cc23)c1F [vemurafenib] |  |  |  | no significant changes | increased in 8 samples from 7 patients and were stable in 2 samples from 2 patients
